Measurements published in US7351407B2, “Agents which regulate, inhibit, or modulate the activity and/or expression of connective tissue growth factor (CTGF) as a unique means to both lower intraocular pressure and treat glaucomatous retinopathies/optic neuropathies” (Alcon, Inc., priority 2002, dated 2008).
For at least one compound, name, drawing or mass did not settle the structure.

System: CTGF gene expression
Test: CTGF QPCR assay for inhibition of basal and TGFβ2-induced CTGF gene expression in cultured human TM cells
Type: cell-based
Details: cultured human normal or glaucomatous TM cells
From the text: FIG. 3. Effect of GSK-3 inhibition on CTGF gene expression in glaucomatous TM cells.
FIG. 4. Effect of CDK2 inhibition on CTGF gene expression in glaucomatous TM cells. To determine the effects of CDK inhibition on CTGF gene expression, we measured the effects of the known CDK2 inhibitor GW-8510 (Davis, et al. 2001) on both basal and TGFβ2-stimulated CTGF mRNA expression in a glaucomatous TM cell line (SGTM2697) using QPCR analysis.
The inventors have tested several different compound classes in a CTGF QPCR assay for inhibition of basal and TGFβ2-induced CTGF gene expression in cultured human normal or glaucomatous TM cells. […]
Differential expression of CTGF was verified by quantitative real-time RT-PCR (QPCR) using an ABI Prism® 7700 Sequence Detection System (Applied Biosystems). essentially as described (Shepard et al., IOVS 2001, 42:3173). […] Specificity of the CTGF and 18S primer pairs was assessed from the PCR product by a combination of DNA sequencing, agarose gel analysis and dissociation curve analysis using the ABI Prism 770 SDS Dissociation Curve software (Applied Biosystems). […] Quantification of relative RNA concentrations was done using the relative standard curve method as described in PE Biosystems User Bulletin #2 (http://docs.appliedbiosystems.com/pebiodocs/04303859.pdf). […]

Row | SMILES | inhibition of basal CTGF gene expression (mRNA levels)
1 | Cc1c(C)c2c(c(C)c1O)CCC(C)(COc1ccc(CC3SC(=O)NC3=O)cc1)O2 (centres unmarked) [troglitazone] | inhibit basal
2 | CC1(COc2ccc(CC3SC(=O)NC3=O)cc2)CCCCC1 (centres unmarked) [ciglitazone] | inhibit basal
